# In the supplement of paper PMC7238544:
# Where a name gives a salt, the structure may show the parent alone. ± gives the standard deviation of the averaged measurements. The list shows a part of the results. The data scatter; read single values as rough.
# Tests used:
# hAMSC donor 1 [1] = assay: Hoechst total cell count ratio vs vehicle control; higher = more cells (less toxicity)
# hAMSC donor 2 [2] = assay: as above
# hAMSC donor 1 [3] = assay: transgenic luciferase activity (RLU/mg protein) fold change vs vehicle control (ratio); higher = more transgene expression
# hAMSC donor 1 [4] = assay: transfection efficiency (EGFP+ cells / Hoechst count) fold change vs vehicle control (ratio); hAMSC are human adipose-derived mesenchymal stem cells given an EGFP-luciferase plasmid by lipofection; higher = enhanced transfection
# hAMSC donor 2 [5] = assay: as above
# [6] = priming compound concentration 0.2 µM
# [7] = priming compound concentration 1.7 µM
# [8] = priming compound concentration 13 µM
structure (smiles),measurement,setting,value
CN(CCOc1ccc(NS(C)(=O)=O)cc1)CCc1ccc(NS(C)(=O)=O)cc1 [Dofetilide],Hoechst total cell count ratio,hAMSC donor 1 [1]; [6],1.37 ± 0.12
same,Hoechst total cell count ratio,hAMSC donor 1 [1]; [7],1.21 ± 0.082
same,Hoechst total cell count ratio,hAMSC donor 1 [1]; [8],1.16 ± 0.16
same,Hoechst total cell count ratio,hAMSC donor 2 [2]; [6],0.794 ± 0.33
same,Hoechst total cell count ratio,hAMSC donor 2 [2]; [7],1.12 ± 0.097
same,Hoechst total cell count ratio,hAMSC donor 2 [2]; [8],1.06 ± 0.11
same,transgenic luciferase activity,hAMSC donor 1 [3]; [8],0.68 ± 0.1
same,transfection efficiency,hAMSC donor 1 [4]; [6],0.763 ± 0.13
same,transfection efficiency,hAMSC donor 1 [4]; [7],1.1 ± 0.34
same,transfection efficiency,hAMSC donor 1 [4]; [8],0.844 ± 0.33
same,transfection efficiency,hAMSC donor 2 [5]; [6],1.36 ± 0.33
same,transfection efficiency,hAMSC donor 2 [5]; [7],1.06 ± 0.18
same,transfection efficiency,hAMSC donor 2 [5]; [8],1.02 ± 0.13
COc1cc2nc(N3CCN(C(=O)C4CCCO4)CC3)nc(N)c2cc1OC (centres undefined) [Terazosin],Hoechst total cell count ratio,hAMSC donor 1 [1]; [6],1.05 ± 0.12
same,Hoechst total cell count ratio,hAMSC donor 1 [1]; [7],1.27 ± 0.16
same,Hoechst total cell count ratio,hAMSC donor 1 [1]; [8],1.26 ± 0.041
same,Hoechst total cell count ratio,hAMSC donor 2 [2]; [6],0.719 ± 0.14
same,Hoechst total cell count ratio,hAMSC donor 2 [2]; [7],0.955 ± 0.088
same,Hoechst total cell count ratio,hAMSC donor 2 [2]; [8],0.848 ± 0.019
same,transgenic luciferase activity,hAMSC donor 1 [3]; [7],1.2 ± 0.21
same,transfection efficiency,hAMSC donor 1 [4]; [6],1.66 ± 0.39
same,transfection efficiency,hAMSC donor 1 [4]; [7],0.987 ± 0.052
same,transfection efficiency,hAMSC donor 1 [4]; [8],1.21 ± 0.38
same,transfection efficiency,hAMSC donor 2 [5]; [6],1.68 ± 0.46
same,transfection efficiency,hAMSC donor 2 [5]; [7],1.12 ± 0.066
same,transfection efficiency,hAMSC donor 2 [5]; [8],1.37 ± 0.12
O=C1c2cccc3c2[C@H](CCC3)CN1[C@@H]1CN2CCC1CC2 [Palonosetron hydrochloride],Hoechst total cell count ratio,hAMSC donor 1 [1]; [6],1.35 ± 0.059
same,Hoechst total cell count ratio,hAMSC donor 1 [1]; [7],1.29 ± 0.31
same,Hoechst total cell count ratio,hAMSC donor 1 [1]; [8],1.3 ± 0.22
same,Hoechst total cell count ratio,hAMSC donor 2 [2]; [6],0.932 ± 0.16
same,Hoechst total cell count ratio,hAMSC donor 2 [2]; [7],1.06 ± 0.064
same,Hoechst total cell count ratio,hAMSC donor 2 [2]; [8],0.989 ± 0.13
same,transgenic luciferase activity,hAMSC donor 1 [3]; [8],0.708 ± 0.21
same,transfection efficiency,hAMSC donor 1 [4]; [6],0.947 ± 0.09
same,transfection efficiency,hAMSC donor 1 [4]; [7],1.44 ± 0.36
same,transfection efficiency,hAMSC donor 1 [4]; [8],0.972 ± 0.12
same,transfection efficiency,hAMSC donor 2 [5]; [6],1.04 ± 0.17
same,transfection efficiency,hAMSC donor 2 [5]; [7],1.57 ± 0.36
same,transfection efficiency,hAMSC donor 2 [5]; [8],0.98 ± 0.21
Cc1nccn1CC1CCc2c(c3ccccc3n2C)C1=O (centres undefined) [Ondansetron],Hoechst total cell count ratio,hAMSC donor 1 [1]; [6],1.36 ± 0.17
same,Hoechst total cell count ratio,hAMSC donor 1 [1]; [7],1.28 ± 0.23
same,Hoechst total cell count ratio,hAMSC donor 1 [1]; [8],1.249 ± 0.004
same,Hoechst total cell count ratio,hAMSC donor 2 [2]; [6],0.636 ± 0.15
same,Hoechst total cell count ratio,hAMSC donor 2 [2]; [7],1.17 ± 0.13
same,Hoechst total cell count ratio,hAMSC donor 2 [2]; [8],1.02 ± 0.35
same,transgenic luciferase activity,hAMSC donor 1 [3]; [7],0.825 ± 0.18
same,transfection efficiency,hAMSC donor 1 [4]; [6],1.18 ± 0.31
same,transfection efficiency,hAMSC donor 1 [4]; [7],0.99 ± 0.29
same,transfection efficiency,hAMSC donor 1 [4]; [8],1.15 ± 0.17
same,transfection efficiency,hAMSC donor 2 [5]; [6],1.38 ± 0.39
same,transfection efficiency,hAMSC donor 2 [5]; [7],1.05 ± 0.11
same,transfection efficiency,hAMSC donor 2 [5]; [8],1 ± 0.17
C[C@H](N[C@@H](CCc1ccccc1)C(=O)O)C(=O)N1CCC[C@H]1C(=O)O [Enalaprilat],Hoechst total cell count ratio,hAMSC donor 1 [1]; [6],1.46 ± 0.052
same,Hoechst total cell count ratio,hAMSC donor 1 [1]; [7],1.54 ± 0.15
same,Hoechst total cell count ratio,hAMSC donor 1 [1]; [8],0.87 ± 0.072
same,Hoechst total cell count ratio,hAMSC donor 2 [2]; [6],1.46 ± 0.16
same,Hoechst total cell count ratio,hAMSC donor 2 [2]; [7],1.23 ± 0.11
same,Hoechst total cell count ratio,hAMSC donor 2 [2]; [8],1.25 ± 0.27
same,transgenic luciferase activity,hAMSC donor 1 [3]; [8],0.586 ± 0.14
same,transfection efficiency,hAMSC donor 1 [4]; [6],1.19 ± 0.14
same,transfection efficiency,hAMSC donor 1 [4]; [7],0.826 ± 0.14
same,transfection efficiency,hAMSC donor 1 [4]; [8],1.51 ± 0.29
same,transfection efficiency,hAMSC donor 2 [5]; [6],0.676 ± 0.099
same,transfection efficiency,hAMSC donor 2 [5]; [7],0.911 ± 0.22
same,transfection efficiency,hAMSC donor 2 [5]; [8],1.11 ± 0.1
O=C1[C@H](CC[C@H](O)c2ccc(F)cc2)[C@@H](c2ccc(O)cc2)N1c1ccc(F)cc1 [Ezetimibe],Hoechst total cell count ratio,hAMSC donor 1 [1]; [6],1.34 ± 0.071
same,Hoechst total cell count ratio,hAMSC donor 1 [1]; [7],1.19 ± 0.068
same,Hoechst total cell count ratio,hAMSC donor 1 [1]; [8],1.15 ± 0.069
same,Hoechst total cell count ratio,hAMSC donor 2 [2]; [6],0.94 ± 0.08
same,Hoechst total cell count ratio,hAMSC donor 2 [2]; [7],1.32 ± 0.14
same,Hoechst total cell count ratio,hAMSC donor 2 [2]; [8],1.1 ± 0.092
same,transgenic luciferase activity,hAMSC donor 1 [3]; [8],0.786 ± 0.1
same,transfection efficiency,hAMSC donor 1 [4]; [6],1.41 ± 0.35
same,transfection efficiency,hAMSC donor 1 [4]; [7],1.64 ± 0.26
same,transfection efficiency,hAMSC donor 1 [4]; [8],1.47 ± 0.48
same,transfection efficiency,hAMSC donor 2 [5]; [6],1.15 ± 0.073
same,transfection efficiency,hAMSC donor 2 [5]; [7],1.02 ± 0.23
same,transfection efficiency,hAMSC donor 2 [5]; [8],0.818 ± 0.013
Cc1ccsc1C(=CCCN1CCC[C@@H](C(=O)O)C1)c1sccc1C [Tiagabine hydrochloride],Hoechst total cell count ratio,hAMSC donor 1 [1]; [6],1.27 ± 0.11
same,Hoechst total cell count ratio,hAMSC donor 1 [1]; [7],1.12 ± 0.098
same,Hoechst total cell count ratio,hAMSC donor 1 [1]; [8],1.19 ± 0.18
same,Hoechst total cell count ratio,hAMSC donor 2 [2]; [6],1.66 ± 0.14
same,Hoechst total cell count ratio,hAMSC donor 2 [2]; [7],1.06 ± 0.19
same,Hoechst total cell count ratio,hAMSC donor 2 [2]; [8],1.4 ± 0.028
same,transgenic luciferase activity,hAMSC donor 1 [3]; [8],0.677 ± 0.29
same,transfection efficiency,hAMSC donor 1 [4]; [6],1.02 ± 0.17
same,transfection efficiency,hAMSC donor 1 [4]; [7],1.01 ± 0.17
same,transfection efficiency,hAMSC donor 1 [4]; [8],0.877 ± 0.45
same,transfection efficiency,hAMSC donor 2 [5]; [6],0.931 ± 0.021
same,transfection efficiency,hAMSC donor 2 [5]; [7],1.23 ± 0.15
same,transfection efficiency,hAMSC donor 2 [5]; [8],0.817 ± 0.1
CCCCCCCCCCC[C@@H](C[C@@H]1OC(=O)[C@H]1CCCCCC)OC(=O)[C@H](CC(C)C)NC=O [Orlistat],Hoechst total cell count ratio,hAMSC donor 1 [1]; [6],1.42 ± 0.23
same,Hoechst total cell count ratio,hAMSC donor 1 [1]; [7],1.45 ± 0.11
same,Hoechst total cell count ratio,hAMSC donor 1 [1]; [8],1.29 ± 0.064
same,Hoechst total cell count ratio,hAMSC donor 2 [2]; [6],1.11 ± 0.15
same,Hoechst total cell count ratio,hAMSC donor 2 [2]; [7],1.13 ± 0.099
same,Hoechst total cell count ratio,hAMSC donor 2 [2]; [8],0.974 ± 0.21
same,transgenic luciferase activity,hAMSC donor 1 [3]; [8],0.975 ± 0.66
same,transfection efficiency,hAMSC donor 1 [4]; [6],1.14 ± 0.46
same,transfection efficiency,hAMSC donor 1 [4]; [7],0.989 ± 0.11
same,transfection efficiency,hAMSC donor 1 [4]; [8],1.09 ± 0.28
same,transfection efficiency,hAMSC donor 2 [5]; [6],1.14 ± 0.023
same,transfection efficiency,hAMSC donor 2 [5]; [7],1.17 ± 0.096
same,transfection efficiency,hAMSC donor 2 [5]; [8],1.24 ± 0.3

# Given as tab-separated lines: part of the list above
structure (smiles)	measurement	setting	value
CN(CCOc1ccc(NS(C)(=O)=O)cc1)CCc1ccc(NS(C)(=O)=O)cc1 [Dofetilide]	transfection efficiency	hAMSC donor 1 [4]; [6]	0.763 ± 0.13
same	transfection efficiency	hAMSC donor 1 [4]; [7]	1.1 ± 0.34
COc1cc2nc(N3CCN(C(=O)C4CCCO4)CC3)nc(N)c2cc1OC (centres undefined) [Terazosin]	Hoechst total cell count ratio	hAMSC donor 1 [1]; [7]	1.27 ± 0.16
same	transgenic luciferase activity	hAMSC donor 1 [3]; [7]	1.2 ± 0.21
same	transfection efficiency	hAMSC donor 2 [5]; [7]	1.12 ± 0.066
O=C1c2cccc3c2[C@H](CCC3)CN1[C@@H]1CN2CCC1CC2 [Palonosetron hydrochloride]	Hoechst total cell count ratio	hAMSC donor 2 [2]; [7]	1.06 ± 0.064
same	transgenic luciferase activity	hAMSC donor 1 [3]; [8]	0.708 ± 0.21
same	transfection efficiency	hAMSC donor 1 [4]; [6]	0.947 ± 0.09
same	transfection efficiency	hAMSC donor 1 [4]; [7]	1.44 ± 0.36
same	transfection efficiency	hAMSC donor 2 [5]; [7]	1.57 ± 0.36
same	transfection efficiency	hAMSC donor 2 [5]; [8]	0.98 ± 0.21
Cc1nccn1CC1CCc2c(c3ccccc3n2C)C1=O (centres undefined) [Ondansetron]	Hoechst total cell count ratio	hAMSC donor 1 [1]; [6]	1.36 ± 0.17
same	Hoechst total cell count ratio	hAMSC donor 2 [2]; [6]	0.636 ± 0.15
same	Hoechst total cell count ratio	hAMSC donor 2 [2]; [8]	1.02 ± 0.35
same	transgenic luciferase activity	hAMSC donor 1 [3]; [7]	0.825 ± 0.18
same	transfection efficiency	hAMSC donor 1 [4]; [6]	1.18 ± 0.31
C[C@H](N[C@@H](CCc1ccccc1)C(=O)O)C(=O)N1CCC[C@H]1C(=O)O [Enalaprilat]	Hoechst total cell count ratio	hAMSC donor 2 [2]; [7]	1.23 ± 0.11
same	transgenic luciferase activity	hAMSC donor 1 [3]; [8]	0.586 ± 0.14
same	transfection efficiency	hAMSC donor 2 [5]; [6]	0.676 ± 0.099
same	transfection efficiency	hAMSC donor 2 [5]; [8]	1.11 ± 0.1
O=C1[C@H](CC[C@H](O)c2ccc(F)cc2)[C@@H](c2ccc(O)cc2)N1c1ccc(F)cc1 [Ezetimibe]	Hoechst total cell count ratio	hAMSC donor 1 [1]; [6]	1.34 ± 0.071
Cc1ccsc1C(=CCCN1CCC[C@@H](C(=O)O)C1)c1sccc1C [Tiagabine hydrochloride]	Hoechst total cell count ratio	hAMSC donor 2 [2]; [6]	1.66 ± 0.14
same	transfection efficiency	hAMSC donor 1 [4]; [6]	1.02 ± 0.17
same	transfection efficiency	hAMSC donor 2 [5]; [7]	1.23 ± 0.15
same	transfection efficiency	hAMSC donor 2 [5]; [8]	0.817 ± 0.1
CCCCCCCCCCC[C@@H](C[C@@H]1OC(=O)[C@H]1CCCCCC)OC(=O)[C@H](CC(C)C)NC=O [Orlistat]	Hoechst total cell count ratio	hAMSC donor 1 [1]; [6]	1.42 ± 0.23
same	Hoechst total cell count ratio	hAMSC donor 1 [1]; [8]	1.29 ± 0.064
same	transfection efficiency	hAMSC donor 2 [5]; [6]	1.14 ± 0.023
same	transfection efficiency	hAMSC donor 2 [5]; [8]	1.24 ± 0.3
